Here are results for two molecules from publication doi:10.1101/241208.

These are yes or no findings as the source states them, for the method shown. In cells and extracts the contact can be indirect. For some of these results: Binding calls can cover weak binding; strength is not graded here. Where a sequence is shown, tags or fusion partners need not be part of it.

Assay in all cases: co-IP
Experiment [1] concerns the target T1, mycPex19 (mouse Pex19 cloned into pRK5-myc vector) (mouse) (UniProt Q8VCI5).
T1 sequence: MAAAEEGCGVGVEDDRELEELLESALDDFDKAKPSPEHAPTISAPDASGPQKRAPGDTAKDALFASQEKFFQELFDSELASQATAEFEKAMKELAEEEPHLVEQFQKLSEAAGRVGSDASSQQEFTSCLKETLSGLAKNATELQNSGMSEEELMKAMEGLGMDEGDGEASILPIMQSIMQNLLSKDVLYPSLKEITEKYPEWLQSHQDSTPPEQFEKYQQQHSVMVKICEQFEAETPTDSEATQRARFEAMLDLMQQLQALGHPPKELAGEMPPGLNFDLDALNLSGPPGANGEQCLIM

Experiment [2] deals with GFPGTP2 (GTPase2 domain of Miro1).
Experiment [3] addresses GFPGTP1 (C-terminally anchored GTPase1 domain of Miro1).
Experiment [4] has as its target GFPEF1-EF2-GTP2 (Miro1 lacking the first GTPase domain).

Regarding “mycMiro1ΔTM (Miro1 lacking the transmembrane domain) (domain or fragment)”, the binding entry in experiment [1] is on record as “no binding”.

B1: mycPex19 (mouse Pex19 cloned into pRK5-myc vector) (protein, UniProt Q8VCI5-1 1-299)
chain: T1 sequence
In the case of B1, the binding result in experiment [2], in experiment [3] and in experiment [4] was “binds” throughout.
